In publication PMC12526889:
No constants are given. Whether binding was seen depends on the method and setting. For some of these results: Binding seen in cells or lysates may run through a third protein. Sequences can lack the tags named with a protein. Some binding calls cover weakened binding; strength is not graded here. Each block holds one binder with its values, some of them ahead of it.

Tests used:
[1] = biological target: T1, CENP-S (Arabidopsis), two-hybrid fusion (Arabidopsis thaliana) (UniProt Q9FI55); assay: two-hybrid; GAL4 DNA-BD (pGBT9-GW) and AD (pGAD424-GW) fusions in yeast AH109; growth on -TLH (moderately selective) and -TLHA (severely selective) media, 30 °C, 3 days; BD constructs of CENP-C, SPC24.1, DSN1 and ZWINT1.1 self-activated
T1 sequence: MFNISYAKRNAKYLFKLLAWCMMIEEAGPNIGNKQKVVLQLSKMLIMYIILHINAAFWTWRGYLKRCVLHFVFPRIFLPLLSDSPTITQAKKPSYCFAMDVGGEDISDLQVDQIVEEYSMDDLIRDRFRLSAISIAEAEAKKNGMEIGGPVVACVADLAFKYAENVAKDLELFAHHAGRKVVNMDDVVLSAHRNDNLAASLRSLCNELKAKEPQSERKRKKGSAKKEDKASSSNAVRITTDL

[2] = biological target: T2, MIS12 (Arabidopsis), two-hybrid fusion (Arabidopsis thaliana) (UniProt Q2V0Z5); assay: as above
T2 sequence: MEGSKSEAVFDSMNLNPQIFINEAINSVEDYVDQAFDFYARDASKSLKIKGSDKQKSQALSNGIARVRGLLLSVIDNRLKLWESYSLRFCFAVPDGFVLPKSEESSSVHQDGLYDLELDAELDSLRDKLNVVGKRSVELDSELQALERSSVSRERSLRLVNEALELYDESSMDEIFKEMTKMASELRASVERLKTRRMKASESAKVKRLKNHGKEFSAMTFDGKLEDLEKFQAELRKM

[3] = biological target: T3, NDC80 (Arabidopsis), two-hybrid fusion (Arabidopsis thaliana) (UniProt Q9M1G5); assay: as above
T3 sequence: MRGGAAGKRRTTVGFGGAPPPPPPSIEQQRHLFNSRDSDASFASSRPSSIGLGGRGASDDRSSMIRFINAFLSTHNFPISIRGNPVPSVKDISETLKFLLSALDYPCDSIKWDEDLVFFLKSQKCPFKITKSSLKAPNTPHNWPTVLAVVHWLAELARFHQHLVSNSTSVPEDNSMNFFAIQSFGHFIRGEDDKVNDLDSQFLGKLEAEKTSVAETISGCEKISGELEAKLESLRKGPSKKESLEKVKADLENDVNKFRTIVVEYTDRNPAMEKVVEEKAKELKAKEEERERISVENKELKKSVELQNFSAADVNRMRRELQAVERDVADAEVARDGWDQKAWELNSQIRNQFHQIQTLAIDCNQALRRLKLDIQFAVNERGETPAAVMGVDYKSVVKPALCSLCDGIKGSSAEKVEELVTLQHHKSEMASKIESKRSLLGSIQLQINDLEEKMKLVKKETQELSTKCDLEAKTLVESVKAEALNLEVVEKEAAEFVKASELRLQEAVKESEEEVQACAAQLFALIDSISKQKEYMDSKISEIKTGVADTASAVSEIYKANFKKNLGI

[4] = biological target: MPS1 (Arabidopsis), two-hybrid fusion (Arabidopsis thaliana) (UniProt Q84VX4); assay: as above
[5] = biological target: T4, NDC80 (BiFC fusion) (Arabidopsis thaliana) (UniProt Q9M1G5); assay: split reporter; BiFC: fusions to the N-terminal and C-terminal fragments of YFP coinfiltrated with p19 into N. benthamiana leaves; confocal imaging 3 days after inoculation
T4 sequence: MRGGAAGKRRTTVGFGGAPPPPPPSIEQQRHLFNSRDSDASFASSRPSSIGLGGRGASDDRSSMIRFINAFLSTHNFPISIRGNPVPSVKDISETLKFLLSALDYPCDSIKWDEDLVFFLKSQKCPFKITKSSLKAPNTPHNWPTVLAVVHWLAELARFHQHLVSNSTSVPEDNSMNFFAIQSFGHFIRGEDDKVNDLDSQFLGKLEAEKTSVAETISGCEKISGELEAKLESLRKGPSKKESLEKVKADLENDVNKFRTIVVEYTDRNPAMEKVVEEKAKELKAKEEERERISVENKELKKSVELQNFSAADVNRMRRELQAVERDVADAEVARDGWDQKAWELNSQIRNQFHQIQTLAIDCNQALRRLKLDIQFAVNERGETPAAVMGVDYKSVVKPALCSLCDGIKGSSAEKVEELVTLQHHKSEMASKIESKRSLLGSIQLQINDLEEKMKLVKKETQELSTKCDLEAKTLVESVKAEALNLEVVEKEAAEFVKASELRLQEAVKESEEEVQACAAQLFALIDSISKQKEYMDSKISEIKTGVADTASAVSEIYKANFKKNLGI

[6] = biological target: T5, NUF2 (Arabidopsis), two-hybrid fusion (Arabidopsis thaliana) (UniProt Q8RXJ0); assay: two-hybrid; GAL4 DNA-BD (pGBT9-GW) and AD (pGAD424-GW) fusions in yeast AH109; growth on -TLH (moderately selective) and -TLHA (severely selective) media, 30 °C, 3 days; BD constructs of CENP-C, SPC24.1, DSN1 and ZWINT1.1 self-activated
T5 sequence: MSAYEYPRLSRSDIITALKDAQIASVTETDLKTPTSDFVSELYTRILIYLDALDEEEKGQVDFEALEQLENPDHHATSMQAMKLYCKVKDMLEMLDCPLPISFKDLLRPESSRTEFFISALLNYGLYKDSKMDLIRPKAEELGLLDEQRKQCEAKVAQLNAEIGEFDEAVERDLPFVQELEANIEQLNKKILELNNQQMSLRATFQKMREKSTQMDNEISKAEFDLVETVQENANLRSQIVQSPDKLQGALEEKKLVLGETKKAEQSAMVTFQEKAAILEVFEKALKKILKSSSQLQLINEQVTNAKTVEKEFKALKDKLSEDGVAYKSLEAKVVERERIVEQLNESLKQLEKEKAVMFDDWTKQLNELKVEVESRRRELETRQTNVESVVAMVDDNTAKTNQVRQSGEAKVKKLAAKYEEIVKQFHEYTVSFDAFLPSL

B2: NDC80 (Arabidopsis), two-hybrid fusion (protein, UniProt Q9M1G5 1-568)
chain: MRGGAAGKRRTTVGFGGAPPPPPPSIEQQRHLFNSRDSDASFASSRPSSIGLGGRGASDDRSSMIRFINAFLSTHNFPISIRGNPVPSVKDISETLKFLLSALDYPCDSIKWDEDLVFFLKSQKCPFKITKSSLKAPNTPHNWPTVLAVVHWLAELARFHQHLVSNSTSVPEDNSMNFFAIQSFGHFIRGEDDKVNDLDSQFLGKLEAEKTSVAETISGCEKISGELEAKLESLRKGPSKKESLEKVKADLENDVNKFRTIVVEYTDRNPAMEKVVEEKAKELKAKEEERERISVENKELKKSVELQNFSAADVNRMRRELQAVERDVADAEVARDGWDQKAWELNSQIRNQFHQIQTLAIDCNQALRRLKLDIQFAVNERGETPAAVMGVDYKSVVKPALCSLCDGIKGSSAEKVEELVTLQHHKSEMASKIESKRSLLGSIQLQINDLEEKMKLVKKETQELSTKCDLEAKTLVESVKAEALNLEVVEKEAAEFVKASELRLQEAVKESEEEVQACAAQLFALIDSISKQKEYMDSKISEIKTGVADTASAVSEIYKANFKKNLGI
- binding [2]: binds
- binding [3]: binds

B3: MPS1 (Arabidopsis), two-hybrid fusion (enzyme, UniProt Q84VX4 1-777)
chain: MDREDNLPVQPDKPPKSLVRPILNLETTSSSSSSSSSSPELLRHLQAAFKRHRPLSKMQTTSIGPRRSVAPQRQASRNTRLVTAEGQRSQDVVTLSQSLAANTLTQDTTNNLAITSVAGESASITQPTVSEHFNPSDRQMDFGKSAVTSLESNLDVQRKSQSLIGTSQDMEWDATNQAEASHLDACIGSKHQNLPSVDSEVSLKSEYKDSSSLAKIQGQLGEFPNFLNQPRTRCSAVGSSWATTTLIHSSSAPMLNATTHVSRSYVEADSNANPHAVQSQGNLPSCCPSSKVSNILHPNKDATASEMPASTNDPEVRVKETDTSKQQQITTGLEAPVGSSIYGSDGQANARLPEELHTSVSSQPQKSDKHEKVASSKGPSAPRKRNYDPDLFFKVNGKLYQRLGKIGSGGSSEVHKVISSDCTIYALKKIKLKGRDYATAYGFCQEIGYLKKLKGKTNIIQLIDYEVTDKTLLQEVLNGTMSNKDGRVKEDGFIYMVLEYGEIDLAHMLSQKWREIEGSDRTIDENWLRFYWQQILQAVNTIHEERIVHSDLKPANFLLVRGFLKLIDFGIAKAINSDTTNIQRDSQVGTLSYMSPEAFMCNESDENGNTIKCGRPSDIWSLGCILYQMVYGRTPFADYKTFWAKFKVITDPNHEITYNQLSNPWLIDLMKKCLAWDRNQRWRIPELLQHPFLAPPIPHEPQVKTIKLFSLIAESCGSDDDKANSMISQLEQLLSNPAPLPRNDVLDSRDQNQQLLSRVSELCIQLQDRLQGLEGEN
- binding [4]: binds
- binding [3]: no binding

B4: MPS1 (BiFC fusion) (enzyme, UniProt Q84VX4 1-777)
chain: MDREDNLPVQPDKPPKSLVRPILNLETTSSSSSSSSSSPELLRHLQAAFKRHRPLSKMQTTSIGPRRSVAPQRQASRNTRLVTAEGQRSQDVVTLSQSLAANTLTQDTTNNLAITSVAGESASITQPTVSEHFNPSDRQMDFGKSAVTSLESNLDVQRKSQSLIGTSQDMEWDATNQAEASHLDACIGSKHQNLPSVDSEVSLKSEYKDSSSLAKIQGQLGEFPNFLNQPRTRCSAVGSSWATTTLIHSSSAPMLNATTHVSRSYVEADSNANPHAVQSQGNLPSCCPSSKVSNILHPNKDATASEMPASTNDPEVRVKETDTSKQQQITTGLEAPVGSSIYGSDGQANARLPEELHTSVSSQPQKSDKHEKVASSKGPSAPRKRNYDPDLFFKVNGKLYQRLGKIGSGGSSEVHKVISSDCTIYALKKIKLKGRDYATAYGFCQEIGYLKKLKGKTNIIQLIDYEVTDKTLLQEVLNGTMSNKDGRVKEDGFIYMVLEYGEIDLAHMLSQKWREIEGSDRTIDENWLRFYWQQILQAVNTIHEERIVHSDLKPANFLLVRGFLKLIDFGIAKAINSDTTNIQRDSQVGTLSYMSPEAFMCNESDENGNTIKCGRPSDIWSLGCILYQMVYGRTPFADYKTFWAKFKVITDPNHEITYNQLSNPWLIDLMKKCLAWDRNQRWRIPELLQHPFLAPPIPHEPQVKTIKLFSLIAESCGSDDDKANSMISQLEQLLSNPAPLPRNDVLDSRDQNQQLLSRVSELCIQLQDRLQGLEGEN
- binding [5]: no binding

B5: MIS12 (Arabidopsis), two-hybrid fusion (protein, UniProt Q2V0Z5 1-238)
chain: MEGSKSEAVFDSMNLNPQIFINEAINSVEDYVDQAFDFYARDASKSLKIKGSDKQKSQALSNGIARVRGLLLSVIDNRLKLWESYSLRFCFAVPDGFVLPKSEESSSVHQDGLYDLELDAELDSLRDKLNVVGKRSVELDSELQALERSSVSRERSLRLVNEALELYDESSMDEIFKEMTKMASELRASVERLKTRRMKASESAKVKRLKNHGKEFSAMTFDGKLEDLEKFQAELRKM
- binding [2]: binds

B6: MAD1 (Arabidopsis), two-hybrid fusion (protein, UniProt Q9LTY1 1-726)
chain: MILRTPQPKRLRSDAGESPFPTGATGSGNQLIIYEDSPLPAPAPLQTSHDHSADQHLCTYQCRQMVKADVLDALSTAEKQVEESKTKLQTLNANFTEADAERKHFRDKFLYSEQELAAAKAREKMLQEQLLMEINNSQERYTKELQSCHELEVKLQNEMNLRKKAESSAATAEEKAKLLEDKLTQLSGSVDREKKRLNNDIAQLGKEAKLSVARIGADLERMQCRAQNAETESNLLRSQLEHLKLIFDECLQEKTEVDKKLSSFTSEAASSSDNSVLVKHLQEELKRYEAEVREARKLKSRHLDAELLNVNLLEEQSRRERAESELSKFHDLQLSMEKLENELSSWKSLLNDIPGVSCPDDIVMRFSVLQNEVVQSTMKIGEASTRIKQLEETLEAIQLGRQNAVSEAALAKEKSEALKTDVKRIEVMLTLVTEEKEQLKAVVNELRKSNSEGSVSGAADGALIQGFESSLAKKENYIKDLEQDLNQLKDVNNRQRTEIELLNEKLVDEARRNKSLERDSDRLRSEISLLESKLGHGDYSAANTRVLRMVNTLGVENEAKQTIEALQAELQKTKERLQAVEELKSQSGDAGKLVDSHITGKIAQLKEQNATLEKREERYKTVFADRISVFRRACCELFGYKIVMDEHQRPNGIPVTRFTLQSIYAQSDDEKLEFEYESGNTSILNNEYASQGDIAKQIEIFIRKFNSIPAFTANLTMESFNRRTLY
- binding [3]: binds
- binding [6]: binds

Second part, the binder after the results:

- binding [1]: binds
B1: CENP-X (Arabidopsis), two-hybrid fusion (protein, UniProt Q8L7N3 1-104)
chain: MDANNTFDSDLIHAIFKHIWARRFRERERSDAIDATEAEVALGTTKKNRLASANANALKLSCELLKSFVSEAVQRAAIIAEAEGMEKIEATHLERILPQLLLDF

- binding [6]: binds
B7: NUF2 (Arabidopsis), two-hybrid fusion (protein, UniProt Q8RXJ0 1-440)
chain: MSAYEYPRLSRSDIITALKDAQIASVTETDLKTPTSDFVSELYTRILIYLDALDEEEKGQVDFEALEQLENPDHHATSMQAMKLYCKVKDMLEMLDCPLPISFKDLLRPESSRTEFFISALLNYGLYKDSKMDLIRPKAEELGLLDEQRKQCEAKVAQLNAEIGEFDEAVERDLPFVQELEANIEQLNKKILELNNQQMSLRATFQKMREKSTQMDNEISKAEFDLVETVQENANLRSQIVQSPDKLQGALEEKKLVLGETKKAEQSAMVTFQEKAAILEVFEKALKKILKSSSQLQLINEQVTNAKTVEKEFKALKDKLSEDGVAYKSLEAKVVERERIVEQLNESLKQLEKEKAVMFDDWTKQLNELKVEVESRRRELETRQTNVESVVAMVDDNTAKTNQVRQSGEAKVKKLAAKYEEIVKQFHEYTVSFDAFLPSL
